According to PMC6161846:
No constants are given. Whether binding was seen depends on the method and setting. In cells and extracts the contact can be indirect. Here binding means that the protein was enriched with, or labelled near, the bait; the list need not be complete.

By UniProt entry, the sequences of proteins in these tests, tags left out. Where a name states a change or a piece, a line headed by the entry shows the natural chain unless it says otherwise.
UniProt Q13444: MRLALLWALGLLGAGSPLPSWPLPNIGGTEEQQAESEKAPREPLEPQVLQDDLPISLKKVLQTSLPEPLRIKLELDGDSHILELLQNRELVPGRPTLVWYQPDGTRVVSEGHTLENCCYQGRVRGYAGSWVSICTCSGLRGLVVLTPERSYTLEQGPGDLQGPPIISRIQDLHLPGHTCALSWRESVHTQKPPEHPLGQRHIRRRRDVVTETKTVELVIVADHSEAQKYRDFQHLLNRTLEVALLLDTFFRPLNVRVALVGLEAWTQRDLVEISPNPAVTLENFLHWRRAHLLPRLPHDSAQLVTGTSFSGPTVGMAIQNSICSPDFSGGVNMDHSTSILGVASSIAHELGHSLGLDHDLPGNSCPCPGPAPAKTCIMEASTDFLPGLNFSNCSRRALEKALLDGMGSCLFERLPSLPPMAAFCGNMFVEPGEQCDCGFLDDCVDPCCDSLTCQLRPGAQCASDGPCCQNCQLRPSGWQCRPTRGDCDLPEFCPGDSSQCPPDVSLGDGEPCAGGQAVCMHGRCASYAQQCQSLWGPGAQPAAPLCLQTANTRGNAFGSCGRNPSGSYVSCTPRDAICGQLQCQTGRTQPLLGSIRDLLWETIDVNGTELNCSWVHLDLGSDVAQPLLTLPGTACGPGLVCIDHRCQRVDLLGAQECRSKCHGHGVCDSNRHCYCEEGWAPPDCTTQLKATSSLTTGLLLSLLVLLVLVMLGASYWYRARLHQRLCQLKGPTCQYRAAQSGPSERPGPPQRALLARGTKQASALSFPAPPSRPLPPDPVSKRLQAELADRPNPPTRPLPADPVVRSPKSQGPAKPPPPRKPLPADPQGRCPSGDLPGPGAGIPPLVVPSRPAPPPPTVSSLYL
UniProt P11940: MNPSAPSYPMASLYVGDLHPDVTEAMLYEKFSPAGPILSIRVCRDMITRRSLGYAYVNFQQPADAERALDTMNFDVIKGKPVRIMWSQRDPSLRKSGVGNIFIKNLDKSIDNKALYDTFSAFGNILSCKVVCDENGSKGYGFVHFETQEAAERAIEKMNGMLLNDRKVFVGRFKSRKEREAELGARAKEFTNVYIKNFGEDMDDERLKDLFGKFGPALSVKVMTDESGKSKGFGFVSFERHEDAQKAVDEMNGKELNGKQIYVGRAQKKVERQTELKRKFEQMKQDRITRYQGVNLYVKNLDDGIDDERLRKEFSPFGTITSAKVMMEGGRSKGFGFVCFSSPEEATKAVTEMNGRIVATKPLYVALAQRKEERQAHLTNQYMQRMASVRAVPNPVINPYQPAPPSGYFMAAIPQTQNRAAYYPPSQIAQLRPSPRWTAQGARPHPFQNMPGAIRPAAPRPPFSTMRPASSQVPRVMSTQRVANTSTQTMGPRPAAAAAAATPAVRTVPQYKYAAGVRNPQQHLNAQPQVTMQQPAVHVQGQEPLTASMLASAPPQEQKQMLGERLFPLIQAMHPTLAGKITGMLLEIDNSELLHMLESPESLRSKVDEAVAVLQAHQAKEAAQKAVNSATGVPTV

Target: full-length ADAM15 (UniProt Q13444)
Assay: affinity purification with mass spectrometry; IP of lysates of ADAM15-transfected T/C28a4 cells with anti-ADAM15 antibodies, SDS/PAGE, band at ~75 kDa excised, peptide mass fingerprinting by MALDI-TOF

- binding: binds
Substance: poly(A) binding protein 1 (PABP) (from UniProt P11940 1-636)
